Some of the results follow. Most entries show no effect beyond the scatter of the controls.

Chains of the proteins cited; added tags and fusions are not shown. Lines headed by an entry give the natural chain unless they say otherwise; changes in a name come on top.
UniProt P62491: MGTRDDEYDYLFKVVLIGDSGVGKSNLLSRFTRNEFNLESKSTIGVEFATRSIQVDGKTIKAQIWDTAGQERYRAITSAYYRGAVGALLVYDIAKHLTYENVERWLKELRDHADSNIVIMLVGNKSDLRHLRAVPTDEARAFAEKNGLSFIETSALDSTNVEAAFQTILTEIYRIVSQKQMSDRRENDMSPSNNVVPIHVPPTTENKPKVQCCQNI
UniProt P55084: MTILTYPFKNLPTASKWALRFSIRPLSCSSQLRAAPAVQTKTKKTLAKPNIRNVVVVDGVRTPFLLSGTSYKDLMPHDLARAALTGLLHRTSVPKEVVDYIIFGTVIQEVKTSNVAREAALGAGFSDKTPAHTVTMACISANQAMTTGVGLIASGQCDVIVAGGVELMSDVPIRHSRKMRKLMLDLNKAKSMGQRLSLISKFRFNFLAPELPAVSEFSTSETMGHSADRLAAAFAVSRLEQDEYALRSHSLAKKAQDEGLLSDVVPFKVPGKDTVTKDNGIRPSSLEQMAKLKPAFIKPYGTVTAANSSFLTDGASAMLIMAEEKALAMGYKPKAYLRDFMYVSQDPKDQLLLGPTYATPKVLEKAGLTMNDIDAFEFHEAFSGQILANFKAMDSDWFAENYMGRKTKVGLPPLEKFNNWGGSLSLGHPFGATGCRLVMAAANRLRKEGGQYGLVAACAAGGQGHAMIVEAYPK
UniProt P78345: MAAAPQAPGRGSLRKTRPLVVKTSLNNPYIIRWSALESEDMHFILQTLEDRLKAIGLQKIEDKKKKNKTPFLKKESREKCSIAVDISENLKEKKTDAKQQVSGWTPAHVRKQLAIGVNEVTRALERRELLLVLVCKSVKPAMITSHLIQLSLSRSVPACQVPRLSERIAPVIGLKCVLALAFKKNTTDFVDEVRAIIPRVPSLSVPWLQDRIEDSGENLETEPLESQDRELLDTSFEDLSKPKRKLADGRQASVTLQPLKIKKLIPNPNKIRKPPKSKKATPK
UniProt P78314: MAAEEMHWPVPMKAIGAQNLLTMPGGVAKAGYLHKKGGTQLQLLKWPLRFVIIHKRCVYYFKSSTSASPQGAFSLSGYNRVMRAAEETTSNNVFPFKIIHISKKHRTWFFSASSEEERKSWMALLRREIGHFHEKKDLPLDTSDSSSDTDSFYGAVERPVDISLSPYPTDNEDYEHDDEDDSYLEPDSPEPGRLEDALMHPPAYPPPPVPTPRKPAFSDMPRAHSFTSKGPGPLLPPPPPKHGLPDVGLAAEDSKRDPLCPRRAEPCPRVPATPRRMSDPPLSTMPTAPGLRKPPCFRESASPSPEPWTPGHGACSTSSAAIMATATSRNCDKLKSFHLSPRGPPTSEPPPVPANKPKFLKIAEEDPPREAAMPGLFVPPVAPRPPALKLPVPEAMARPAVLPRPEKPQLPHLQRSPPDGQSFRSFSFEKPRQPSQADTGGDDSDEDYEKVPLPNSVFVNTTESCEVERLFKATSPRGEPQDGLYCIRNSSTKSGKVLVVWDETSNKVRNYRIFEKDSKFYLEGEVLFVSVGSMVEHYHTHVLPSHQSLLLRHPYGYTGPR
UniProt P82909: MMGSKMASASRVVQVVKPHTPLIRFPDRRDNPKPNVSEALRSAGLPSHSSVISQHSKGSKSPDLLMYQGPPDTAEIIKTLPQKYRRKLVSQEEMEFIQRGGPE
UniProt P78346: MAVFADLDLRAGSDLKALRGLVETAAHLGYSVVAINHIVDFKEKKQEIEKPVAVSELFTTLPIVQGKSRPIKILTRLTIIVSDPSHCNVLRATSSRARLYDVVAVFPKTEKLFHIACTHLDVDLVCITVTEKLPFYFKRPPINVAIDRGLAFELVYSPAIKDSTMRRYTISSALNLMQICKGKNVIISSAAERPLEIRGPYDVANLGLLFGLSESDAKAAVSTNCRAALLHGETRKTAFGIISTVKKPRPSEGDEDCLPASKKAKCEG
UniProt P83369: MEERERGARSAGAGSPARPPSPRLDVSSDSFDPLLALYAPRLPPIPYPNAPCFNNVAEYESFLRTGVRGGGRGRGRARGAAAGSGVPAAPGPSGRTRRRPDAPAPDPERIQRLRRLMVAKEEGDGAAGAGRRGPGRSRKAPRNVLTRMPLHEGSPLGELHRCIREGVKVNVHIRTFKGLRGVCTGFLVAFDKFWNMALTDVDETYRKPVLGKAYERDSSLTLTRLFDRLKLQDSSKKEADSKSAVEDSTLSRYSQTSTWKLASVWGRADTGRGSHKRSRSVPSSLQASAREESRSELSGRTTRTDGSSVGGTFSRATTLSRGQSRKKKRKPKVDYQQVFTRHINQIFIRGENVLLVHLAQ
UniProt P55081: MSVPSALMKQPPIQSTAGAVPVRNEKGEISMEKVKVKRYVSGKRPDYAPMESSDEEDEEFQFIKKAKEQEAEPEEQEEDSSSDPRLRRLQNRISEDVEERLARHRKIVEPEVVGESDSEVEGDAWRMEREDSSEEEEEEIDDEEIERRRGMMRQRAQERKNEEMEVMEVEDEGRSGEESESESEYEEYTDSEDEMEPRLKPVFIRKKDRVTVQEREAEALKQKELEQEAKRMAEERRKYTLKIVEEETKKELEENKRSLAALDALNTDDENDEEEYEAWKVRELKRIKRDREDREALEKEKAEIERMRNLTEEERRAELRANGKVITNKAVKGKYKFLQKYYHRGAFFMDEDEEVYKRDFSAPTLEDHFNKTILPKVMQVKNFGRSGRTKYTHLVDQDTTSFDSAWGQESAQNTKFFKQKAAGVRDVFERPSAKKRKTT
UniProt P55199: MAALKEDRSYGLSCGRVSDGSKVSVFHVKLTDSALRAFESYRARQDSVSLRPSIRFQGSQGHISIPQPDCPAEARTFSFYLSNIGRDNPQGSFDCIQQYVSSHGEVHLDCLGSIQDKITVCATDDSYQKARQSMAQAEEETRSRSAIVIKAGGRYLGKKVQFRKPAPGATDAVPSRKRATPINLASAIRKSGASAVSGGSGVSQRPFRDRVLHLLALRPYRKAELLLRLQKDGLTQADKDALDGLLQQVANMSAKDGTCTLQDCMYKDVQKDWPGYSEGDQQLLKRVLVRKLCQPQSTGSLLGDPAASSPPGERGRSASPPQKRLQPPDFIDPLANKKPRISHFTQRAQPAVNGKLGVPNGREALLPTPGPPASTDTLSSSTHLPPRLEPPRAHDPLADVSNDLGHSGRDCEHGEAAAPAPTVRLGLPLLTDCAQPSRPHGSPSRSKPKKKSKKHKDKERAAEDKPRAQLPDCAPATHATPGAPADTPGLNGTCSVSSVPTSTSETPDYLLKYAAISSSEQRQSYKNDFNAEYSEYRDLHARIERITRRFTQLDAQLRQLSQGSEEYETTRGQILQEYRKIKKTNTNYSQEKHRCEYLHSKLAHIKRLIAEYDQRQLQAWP
UniProt P61764, whole entry: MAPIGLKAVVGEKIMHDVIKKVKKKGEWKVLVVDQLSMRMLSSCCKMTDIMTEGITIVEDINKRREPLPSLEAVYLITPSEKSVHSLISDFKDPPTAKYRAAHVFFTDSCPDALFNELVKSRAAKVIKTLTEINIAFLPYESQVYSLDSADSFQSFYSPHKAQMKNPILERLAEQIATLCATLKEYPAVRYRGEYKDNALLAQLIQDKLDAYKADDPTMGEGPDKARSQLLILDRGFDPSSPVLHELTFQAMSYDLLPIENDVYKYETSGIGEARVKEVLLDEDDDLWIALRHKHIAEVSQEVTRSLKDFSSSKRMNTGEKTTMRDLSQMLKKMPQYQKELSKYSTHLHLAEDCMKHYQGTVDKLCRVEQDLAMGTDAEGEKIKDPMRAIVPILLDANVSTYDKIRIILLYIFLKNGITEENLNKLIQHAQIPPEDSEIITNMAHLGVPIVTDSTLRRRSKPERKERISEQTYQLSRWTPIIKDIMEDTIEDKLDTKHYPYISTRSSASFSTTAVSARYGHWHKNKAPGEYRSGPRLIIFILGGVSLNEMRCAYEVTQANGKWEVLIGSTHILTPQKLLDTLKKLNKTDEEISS
UniProt P60604: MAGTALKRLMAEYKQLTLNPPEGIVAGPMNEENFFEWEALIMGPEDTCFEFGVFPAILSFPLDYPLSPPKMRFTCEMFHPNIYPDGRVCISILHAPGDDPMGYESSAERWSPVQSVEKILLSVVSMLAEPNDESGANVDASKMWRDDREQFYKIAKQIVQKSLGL
UniProt P58557: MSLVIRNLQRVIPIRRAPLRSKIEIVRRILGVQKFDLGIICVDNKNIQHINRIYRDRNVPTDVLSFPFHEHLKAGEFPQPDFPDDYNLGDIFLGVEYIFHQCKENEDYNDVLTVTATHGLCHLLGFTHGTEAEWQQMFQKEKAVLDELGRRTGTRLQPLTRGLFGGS
UniProt P78560: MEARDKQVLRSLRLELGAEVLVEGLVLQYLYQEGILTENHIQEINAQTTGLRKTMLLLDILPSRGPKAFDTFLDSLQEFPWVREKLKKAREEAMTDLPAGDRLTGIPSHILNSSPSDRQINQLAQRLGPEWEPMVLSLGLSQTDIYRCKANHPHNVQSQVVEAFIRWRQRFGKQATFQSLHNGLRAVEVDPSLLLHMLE
UniProt P58012: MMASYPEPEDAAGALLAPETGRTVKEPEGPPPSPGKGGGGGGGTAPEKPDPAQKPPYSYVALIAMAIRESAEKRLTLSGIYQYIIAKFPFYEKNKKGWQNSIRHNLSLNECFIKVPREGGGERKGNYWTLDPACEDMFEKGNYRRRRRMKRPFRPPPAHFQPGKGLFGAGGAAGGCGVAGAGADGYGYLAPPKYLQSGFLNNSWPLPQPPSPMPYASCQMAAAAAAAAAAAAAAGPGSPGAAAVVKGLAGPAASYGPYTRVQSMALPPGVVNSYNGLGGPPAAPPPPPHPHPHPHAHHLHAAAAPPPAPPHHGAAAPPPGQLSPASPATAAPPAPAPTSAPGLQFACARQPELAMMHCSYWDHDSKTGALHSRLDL
UniProt P78316: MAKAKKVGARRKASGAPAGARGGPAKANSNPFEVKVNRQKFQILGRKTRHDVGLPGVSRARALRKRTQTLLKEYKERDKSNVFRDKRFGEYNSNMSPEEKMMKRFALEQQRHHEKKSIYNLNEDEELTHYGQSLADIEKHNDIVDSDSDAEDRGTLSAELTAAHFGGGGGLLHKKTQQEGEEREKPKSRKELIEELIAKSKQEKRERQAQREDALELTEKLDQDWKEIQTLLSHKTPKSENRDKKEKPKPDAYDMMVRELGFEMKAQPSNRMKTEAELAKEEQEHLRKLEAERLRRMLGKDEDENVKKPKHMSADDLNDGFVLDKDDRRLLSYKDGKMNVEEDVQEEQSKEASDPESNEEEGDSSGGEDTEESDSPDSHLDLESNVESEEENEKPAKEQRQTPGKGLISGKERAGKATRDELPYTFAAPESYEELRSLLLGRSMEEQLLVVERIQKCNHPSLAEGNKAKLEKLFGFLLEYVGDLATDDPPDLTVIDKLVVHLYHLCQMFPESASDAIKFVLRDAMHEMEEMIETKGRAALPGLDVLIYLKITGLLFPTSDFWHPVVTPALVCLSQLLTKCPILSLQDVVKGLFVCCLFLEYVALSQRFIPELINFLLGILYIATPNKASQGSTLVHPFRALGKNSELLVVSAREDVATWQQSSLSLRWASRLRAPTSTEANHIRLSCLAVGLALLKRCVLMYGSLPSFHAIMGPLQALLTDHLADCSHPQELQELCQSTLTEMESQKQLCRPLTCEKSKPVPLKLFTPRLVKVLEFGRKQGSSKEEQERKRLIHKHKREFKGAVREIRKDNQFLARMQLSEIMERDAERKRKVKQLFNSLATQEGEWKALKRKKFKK
UniProt P55209: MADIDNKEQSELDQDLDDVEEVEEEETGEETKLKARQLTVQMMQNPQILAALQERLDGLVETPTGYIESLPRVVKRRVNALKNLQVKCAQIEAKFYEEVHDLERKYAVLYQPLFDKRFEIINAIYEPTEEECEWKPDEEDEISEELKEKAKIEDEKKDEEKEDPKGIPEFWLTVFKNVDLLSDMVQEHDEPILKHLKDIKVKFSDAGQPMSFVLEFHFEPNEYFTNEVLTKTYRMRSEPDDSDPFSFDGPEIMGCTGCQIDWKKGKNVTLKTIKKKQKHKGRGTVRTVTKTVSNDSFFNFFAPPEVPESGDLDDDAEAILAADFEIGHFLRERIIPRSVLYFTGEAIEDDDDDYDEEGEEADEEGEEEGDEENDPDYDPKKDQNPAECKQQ
UniProt P58317: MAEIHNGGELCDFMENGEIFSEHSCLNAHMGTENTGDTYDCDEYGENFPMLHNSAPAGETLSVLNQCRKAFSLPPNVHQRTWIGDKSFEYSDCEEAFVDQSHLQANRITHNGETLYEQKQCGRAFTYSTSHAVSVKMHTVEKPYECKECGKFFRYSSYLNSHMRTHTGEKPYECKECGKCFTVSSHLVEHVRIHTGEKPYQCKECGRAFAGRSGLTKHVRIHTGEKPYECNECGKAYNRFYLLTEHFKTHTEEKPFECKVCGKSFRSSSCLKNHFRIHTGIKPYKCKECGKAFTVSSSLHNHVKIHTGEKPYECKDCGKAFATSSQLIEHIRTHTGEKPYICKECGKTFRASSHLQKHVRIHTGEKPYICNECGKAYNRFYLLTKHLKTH
UniProt P63167, whole entry: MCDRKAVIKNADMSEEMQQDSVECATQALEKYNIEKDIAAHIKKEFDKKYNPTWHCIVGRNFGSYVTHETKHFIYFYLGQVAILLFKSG

Compound in the assay: CN[C@@H]1C[C@H]2O[C@@](C)([C@@H]1OC)n1c3ccccc3c3c4c(c5c6ccccc6n2c5c31)C(=O)NC4 [staurosporine]
The assay can be described thus: log2 fold change of tryptic peptide abundance, ligand vs vehicle (limited proteolysis) (log2 ratio); higher = more trypsin-susceptible (destabilized). The settings on record: ligand concentration: 20 uM; sample: K562 cleared lysate; digestion: 4 min, 22 C (HT-PELSA RT4min, Orbitrap Astral).
With “UniProt P62491 (peptide sequence: ENDMSPSNNVVPIHVPPTTENKPK, peptide start residue: 186)”, the log2 fold change was -0.327. To “HADHB (peptide sequence: LEQDEYALR, peptide start residue: 239) (UniProt P55084)” belongs -0.192; to “RPP38 (peptide sequence: SVKPAMITSHLIQLSLSR, peptide start residue: 137) (UniProt P78345)”, 0.232; to “SH3BP2 (peptide sequence: GPGPLLPPPPPK, peptide start residue: 230) (UniProt P78314)”, -0.74.

For “RPS21 (peptide sequence: MQNDAGEFVDLYVPRK, peptide start residue: 1) (UniProt P63220)”, the log2 fold change stood at 0.662. To “GEMIN4 (peptide sequence: VGRPIVEALR, peptide start residue: 42) (UniProt P57678)” belongs 0.622; to “MRPS36 (peptide sequence: VVQVVKPHTPLIR, peptide start residue: 12) (UniProt P82909)”, -0.242. Take “RPP30 (peptide sequence: PSEGDEDCLPASKK, peptide start residue: 250) (UniProt P78346)”: the log2 fold change came out at 0.246.

Take “LSM11 (peptide sequence: LDVSSDSFDPLLALYAPR, peptide start residue: 24) (UniProt P83369)”: the log2 fold change was -0.256. For “MFAP1 (peptide sequence: KNEEMEVMEVEDEGR, peptide start residue: 160) (UniProt P55081)”, the log2 fold change was 0.47. To “ELL (peptide sequence: DVQKDWPGYSEGDQQLLKR, peptide start residue: 268) (UniProt P55199)” belongs 0.318. To “UniProt P61764 (peptide sequence: AIVPILLDANVSTYDKIR, peptide start residue: 389)” belongs 0.597; to “UniProt P60604 (peptide sequence: FTCEMFHPNIYPDGR, peptide start residue: 73)”, 0.0724.

As to “UniProt P62851 (peptide sequence: ATYDKLCK, peptide start residue: 53)”, the log2 fold change is 0.293.

Consider “YBEY (peptide sequence: NVPTDVLSFPFHEHLK, peptide start residue: 58) (UniProt P58557)”, for which the log2 fold change worked out at 0.119. For “CRADD (peptide sequence: QATFQSLHNGLR, peptide start residue: 174) (UniProt P78560)”, the log2 fold change is -0.137. To “FOXL2 (peptide sequence: RPFRPPPAHFQPGK, peptide start residue: 151) (UniProt P58012)” belongs -0.263; to “CASP6 (peptide sequence: EMFDPAEKYK, peptide start residue: 29) (UniProt P55212)”, 0.477.

As to “NOP14 (peptide sequence: GTLSAELTAAHFGGGGGLLHK, peptide start residue: 154) (UniProt P78316)”, the log2 fold change stood at 0.273. In the case of “NAP1L1 (peptide sequence: YAVLYQPLFDKR, peptide start residue: 106) (UniProt P55209)” it was 0.222; in that of “EEFSEC (peptide sequence: QQWALVEFEKPVTCPR, peptide start residue: 409) (UniProt P57772)”, -0.166. To “UniProt P62263 (peptide sequence: IEDVTPIPSDSTR, peptide start residue: 129)” belongs 0.244; to “UniProt P58317 (peptide sequence: AFTVSSSLHNHVK, peptide start residue: 292)”, -0.458. On to “UniProt P63167 (peptide sequence: YNIEKDIAAHIKK, peptide start residue: 32)”, for which the log2 fold change was determined as 0.208.

Source of the values: the supplement of paper PMC12819154, “High-throughput peptide-centric local stability assay extends protein–ligand identification to membrane proteins, tissues and bacteria” (Nature Structural & Molecular Biology, 2025).
